From US20060270709A1 (priority 2005, published 2006)

Experiments:
[1] = system: dopamine turnover in mice striatum; experiment: Dopamine, DOPAC and HVA content / dopamine turnover in mice striatum (HPLC-ECD); format: in vivo, C57BL/6 mice; details: oral, 1 hour before sampling (FIG. 2)
[2] = system: kainate-induced neuronal toxicity in cortical neurons; experiment: Kainate-induced neuronal toxicity in cortical neurons (LDH release); format: cell-based, rat (Wistar, fetal); details: 200 μM kainate 24 h; drugs 24 hours before and during exposure (FIG. 4)
Protocol: The cortical tissues were dissociated to single cells by gentle trituration. […] The cell suspension was centrifuged at 310×g for 3 min and the resulting pellets were resuspended in the medium described above.

[3] = system: AMPA-mediated neurodegeneration in CA1 region of organotypic hippocampal slice cultures; experiment: AMPA toxicity in organotypic hippocampal slice cultures (PI fluorescence in CA1); format: cell-based, Wistar rat; details: for area of PI fluorescence, % of CA1: 30 μM AMPA, AMPA alone 62.4±2.4%
Protocol: (§1) Organotypic hippocampal slice cultures were prepared using the basic method of Pringle et al, Brain Research, 755:36-46 (1997) modified as follows. Wistar rat pups (8-11 days old) were decapitated and the hippocampus rapidly dissected into ice-cold Gey's balanced salt solution supplemented with 4.5 mg/ml glucose. Transverse sections (400 μm) were cut on a McIlwain tissue chopper and placed back into ice-cold Gey's balanced salt solution. Slices were separated and plated onto Millicell CM culture inserts (4 per well) and maintained at 37° C./5% CO2 for 14 days. […] Medium was changed every 3-4 days.
(§2) PI fluorescence was detected using a Leica DMIL inverted microscope fitted with a rhodamine filter set. Any cultures in which PI fluorescence was detected at this stage were excluded from further study. […] Neuronal damage was assessed by PI fluorescence imaging 24 hours after the initiation of the neurotoxic insult. Neurotoxicity protocols are outlined below.
(1) AMPA: Cultures were transferred to fresh SFM (+PI) containing 30 μM S-AMPA for 3 hours under normal culture conditions. At the end of this period, cultures were returned to fresh SFM for 21 hours prior to determination of neuronal death by PI imaging. GYK152466 (30 μM) was used as a positive, neuroprotective control.
(§3) Neuronal damage was assessed using ImageJ software running on a PC. Images were captured using a monochrome CCD camera and saved for otlline analysis. Light transmission images were captured prior to the addition of drugs, and PI fluorescence images recorded at the end of the 24-hour recovery period. The area of the CA1 region was determined from the transmission image. The area of PI fluorescence in the CA1 was measured using the threshold function on ImageJ, and neuronal damage expressed as the percentage of the CA1 in which PI fluorescence was detected above background. Morrison et al, Br. J. Pharmacol., 137:1255-1268 (2002).

[4] = system: OGD-induced neurotoxicity in CA1 region of organotypic hippocampal slice cultures; experiment: Oxygen-glucose deprivation (OGD) in organotypic hippocampal slice cultures (PI fluorescence in CA1); format: cell-based, Wistar rat; details: OGD second series, OGD alone 44.8±3.3%
Protocol: as §1, §2
(2) Oxygen-Glucose Deprivation (OGD): Experimental ischaemia was performed by exposing cultures to oxygen-glucose deprivation (OGD) as described previously. Pringle et al, Brain Research, 755:36-46 (1997); Pringle et al, Stroke, 27:2124-2130 (1996); Morrison et al, Br. J. Pharmacol., 137:1255-1268 (2002). OGD was induced by transferring cultures to glucose-free SFM (+PI) which had been saturated with 95% N2/5% CO2. […]
as §3, with “Images were captured using a monochrome CCD camera and saved for otlline analysis.” left out, “Morrison et al, Br. J. Pharmacol., 137:1255-1268 (2002).” left out

[5] = system: duroquinone-induced injury in CA1 region of organotypic hippocampal slice cultures; experiment: Free radical-mediated toxicity (duroquinone) in organotypic hippocampal slice cultures; format: cell-based, Wistar rat; details: 100 μM duroquinone 3 hours, duroquinone alone 51.0±3.4%
Protocol: as §1, §2
(5) Free radical-mediated toxicity (Duroquinone): Duroquinone produces superoxide-mediated neurotoxicity producing a selective neuronal lesion in the CA1 region. Wilde et al, J. Neurochem., 69(2):883-886 (1997). Cultures were transferred to fresh SFM (+PI) containing 100 μM duroquinone for 3 hours under normal culture conditions. At the end of this period, cultures were returned to fresh SFM for 21 hours prior to determination of neuronal death by PI imaging. MnTBAP (100 μM) was used as a positive neuroprotective control.
as §3, with “Morrison et al, Br. J. Pharmacol., 137:1255-1268 (2002).” left out

[6] = system: NMDA-induced neurotoxicity in CA1 region of organotypic hippocampal slice cultures; experiment: NMDA-induced neurotoxicity in organotypic hippocampal slice cultures; format: cell-based, Wistar rat; details: 10 μM NMDA 3 hours, NMDA alone 35.1±2.2%
Protocol: as §1, §2
At the end of this period, cultures were returned to fresh SFM for 21 hours prior to determination of neuronal death by PI imaging.
as §3

[7] = system: hypoxia-induced neurodegeneration in CA1 region of organotypic hippocampal slice cultures; experiment: Hypoxia-induced neurodegeneration in organotypic hippocampal slice cultures; format: cell-based, Wistar rat
Protocol: as §1, §2
(3) Hypoxia: Hypoxia was performed by exposing cultures to oxygen-deprivation as described previously. Pringle et al, Brain Research, 755:36-46 (1997); Pringle et al, Stroke, 27:2124-2130 (1996). Hypoxia was induced by transferring cultures to SFM (+PI) which had been saturated with 95% N2/5% CO2. Culture plates (without lids) were then sealed into an airtight chamber in which the atmosphere was saturated with 95% N2/5% CO2 by continuously blowing through gas at 10 L/min for ten minutes before being sealed and placed in the incubator for 170 mins (total time of hypoxia was therefore 180 mins). At the end of the period of hypoxia, cultures were returned to normoxic SFM (+PI) and placed back in the incubator for 21 hours. The freeradical scavenger MnTBAP (100 μM) was used as a positive neuroprotective control.
as §3

[8] = system: excitotoxicity induced by NMDA; details: Akasofu et al, Eur. J. Pharmacol., 530:215-222 (2006); cited from earlier work
[9] = system: excitotoxicity induced by kainate; details: Akasofu et al, Eur. J. Pharmacol., 530:215-222 (2006); cited from earlier work

COc1cc2c(cc1OC)C(=O)C(CC1CCN(Cc3ccccc3)CC1)C2 (stereo not drawn) [donepezil, 1-benzyl-4-((5,6-dimethoxy-1-indanon)-2-yl)methylpiperidine]
elevation of dopamine metabolite [1]: did not reach significance
neuronal survival (LDH release) [2]: modest effect on neuronal survival
area of PI fluorescence, % of CA1 ([3]; 0.1 μM): 69.5±2.4%
area of PI fluorescence, % of CA1 ([3]; 1 μM): 70.7±2.4%
area of PI fluorescence, % of CA1 ([3]; 10 μM): 70.9%±2.8
PI fluorescence, % of CA1 ([3]; 4 hours pre-incubation, AMPA alone 46.5±5.0%): 57.4±2.3%
PI fluorescence, % of CA1 ([3]; 24 hours pre-incubation, AMPA alone 46.5±5.0%): 55.51±2.6%
effect on AMPA-mediated toxicity ([3]; longer pre-incubation times (up to 48 hours), AMPA alone 46.5±5.0%): No effect
damage in CA1 (PI fluorescence) ([4]; 0.1 μM): 49.4±2.7%
damage in CA1 (PI fluorescence) ([4]; 1 μM): 54.1±4.7%
damage in CA1 (PI fluorescence) ([4]; 10 μM): 45.3±3.3%
damage in CA1 (PI fluorescence) ([5]; 0.1 μM): 56.4±4.4%
damage in CA1 (PI fluorescence) ([5]; 1 μM): 53.2±4.9%
damage in CA1 (PI fluorescence) ([5]; 10 μM): 56.6±4.4%
damage in CA1 (PI fluorescence) ([6]; 0.1 μM): 23.0±2.4%
damage in CA1 (PI fluorescence) ([6]; 1 μM): 25.2±2.3%
damage in CA1 (PI fluorescence) ([6]; 10 μM donepezil): 14.5±2.2%
damage in CA1 (PI fluorescence) ([7]; 0.1 μM, 3 hours hypoxia, first set, hypoxia alone 45.1±3.5%): 31.7±4.6%
damage in CA1 (PI fluorescence) ([7]; 0.1 μM, hypoxia, second set, hypoxia alone 36.4±3.9%): 30.4±3.9%
damage in CA1 (PI fluorescence) ([7]; 0.5 μM, hypoxia, repeated experiment, hypoxia alone 36.9+4.4%): 25.3±3.6%
damage in CA1 (PI fluorescence) ([7]; 1 μM, 3 hours hypoxia, first set, hypoxia alone 45.1±3.5%): 14.9±3.2%
damage in CA1 (PI fluorescence) ([7]; 10 μM, 3 hours hypoxia, first set, hypoxia alone 45.1±3.5%): 12.9±2.9%
neuroprotective effects against excitotoxicity induced by NMDA [8]: exhibits neuroprotective effects
neuroprotective effects against excitotoxicity induced by kainate [9]: not by kainate
